PubChem BioAssay AID624246 (National Center for Advancing Translational Sciences (NCATS), 2012)
Screen size: about 370,000 compounds; about 100 (0.027%) were called active. Inconclusive means that the source gave no clear call. Such entries were picked first, then a sample of the others. Calls follow the shape of the dose curve; as a rule, active = well fitted inhibition curve with a large enough effect in the polarisation, with a control signal flat; inconclusive = small, poorly fitted or top-dose-only effect, or effect the other way, or a change in a side signal; inactive = no such curve, though single readings can be large or run the other way; the % refers to the polarisation. Where the call is inconclusive, the potency comes from a doubtful curve fit. A note “side channel” means that the fit belongs to a control or component signal, not to the main read-out.

Sequences of proteins named here, by UniProt entry; tags and fusion partners are left off. A change or cut given only in a name is not applied to a line headed by its entry.
UniProt P11308: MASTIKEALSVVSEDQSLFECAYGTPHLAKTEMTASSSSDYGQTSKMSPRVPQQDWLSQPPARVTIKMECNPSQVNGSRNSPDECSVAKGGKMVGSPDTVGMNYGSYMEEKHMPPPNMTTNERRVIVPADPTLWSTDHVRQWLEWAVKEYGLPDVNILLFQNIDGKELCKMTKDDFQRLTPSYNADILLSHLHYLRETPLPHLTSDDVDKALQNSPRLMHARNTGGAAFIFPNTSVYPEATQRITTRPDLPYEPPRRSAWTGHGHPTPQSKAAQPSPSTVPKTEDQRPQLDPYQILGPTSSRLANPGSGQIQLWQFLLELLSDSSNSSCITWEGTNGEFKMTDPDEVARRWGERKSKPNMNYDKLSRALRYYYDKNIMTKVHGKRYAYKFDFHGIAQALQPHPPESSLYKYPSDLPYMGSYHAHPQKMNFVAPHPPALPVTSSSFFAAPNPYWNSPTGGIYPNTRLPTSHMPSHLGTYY

The molecules below were run against Transcriptional regulator ERG (Homo sapiens) (UniProt P11308) (assay: qHTS for Small Molecule Inhibitors of the ERG Ets/DNA interaction). Conditions: fluorescence polarization, His-ERG Ets domain / labelled DNA; FP activity, negative = inhibition: at 76.9 µM (top of the series).
Source text: The Ets family of proteins is a family of ~30 conserved transcription factors defined by the presence of an ~85 amino acid domain referred to as the Ets domain, which mediates sequence-specific DNA binding to a core DNA element GGAA/T.The Ets family member ERG has been linked to several neoplasms. […] More extensive studies of the effects of over-expression of ERG in prostate cells have recently been carried out and have shown that over-expression of ERG results in increased invasion. […] We will carry out a high throughout screen to identify inhibitors of the interaction between ERG and DNA using a fluorescence polarization (FP) assay with a His-tagged ERG Ets domain and fluorescently-labeled DNA probes to develop small molecule inhibitors of this interaction as probes to test this hypothesis and lay the groundwork for the development of targeted therapies against ERG. NIH Molecular Libraries Probe Production Network [MLPCN] NIH Chemical Genomics Center [NCGC] Grant: NS066464 PI Name: John Bushweller, University of Virgina
1.5 ul of protein solution (1 uM ERG domain in 300mM KCl, 50mM Tris-HCl, 1mM EDTA, 1mM DTT, pH 7.5); 20 nl Control plate and compound library plate; 1.5 ul mixture of 5 nM Fluorescein-DNA and 100nM Texas-615-DNA solution in same buffer as above solution; measure fluorescence polarization sequentially for fluorescein (Excitation = 480 nm, Emission = 535s, 535p nm) and Texas red (Excitation = 555 nm, Emission = 632s, 632p nm).
For FP activity, negative = inhibition in this document: % of control where 0% means no effect.
Potency is read from the fitted curve at half-maximal effect.

Compound | Potency | FP activity, negative = inhibition
CC1CCN(S(=O)(=O)c2ccc(Cl)s2)CC1 | inconclusive: 3.16 µM [inhibitor, single point] | 
CCCCNC(=O)CCC(=O)NNc1nc2ccccc2c2nc(C)nn12 | inconclusive: 79.4 µM [inhibitor, single point] | 
O=C(C1CC(=O)N(c2ccc(F)cc2)C1)N1CCC(c2nc3ccccc3[nH]2)CC1 (configuration not stated) | inconclusive: 8.91 µM [inhibitor, single point] | 
CC(C)(C)OC(=O)N1CCC[C@H]1c1nnc(SCc2ccccc2)o1 | inconclusive: 4.47 µM [quencher, side channel, full curve] | 
O=C(c1ccc2c(c1)OCO2)N1CCC(Cc2ccccc2)CC1 | inconclusive: 0.794 µM [inhibitor, full curve, poor fit] | 
NNC(=O)c1ccc(CN2C(=O)c3cccc4cccc2c34)cc1 |  | inactive: -6.19%
Cc1ccc(NC(=S)NCc2ccc3c(c2)cc(C)n3C)c(C)c1 | inconclusive: 28.2 µM [inhibitor, single point] | 
COc1ccccc1CNC(=O)Cn1cnc2ccccc2c1=O | inconclusive: 39.8 µM [fluorescent, side channel, single point] | 
CCOC(=O)c1oc2ccc(S(=O)(=O)n3nc(-c4ccc(OC)cc4)cc3N)cc2c1C | inconclusive: 11.2 µM [inhibitor, partial curve, poor fit] | 
N#CC(C#N)=C1C=C2C=C(N3CCCCCC3)CCC2CC1 (configuration not stated) | inconclusive: 44.7 µM [inhibitor, single point] | 
Cc1cc(C(=O)COC(=O)C23CC4CC(CC(O)(C4)C2)C3)c(C)n1C | inconclusive: 8.91 µM [inhibitor, partial curve, poor fit] | 
CC(C)(C)c1nn(-c2ccccc2)c2[nH]c(=O)c(C=O)cc12 |  | inactive: 5.43%
Cc1sc2ncnc(N)c2c1C |  | inactive: 2.48%
NC(=O)CC(NC(=O)Cc1ccc(Br)cc1)c1ccc(NC2CCCCCC2)c([N+](=O)[O-])c1 (configuration not stated) |  | inactive: 4.64%
CC(C)NC(=O)CSc1nnc(-c2ccco2)n1N |  | inactive: -5.78%
CCn1c(=O)cc(OCC(=O)Nc2ccccc2C#N)c2ccccc21 | inconclusive: 7.08 µM [inhibitor, single point] | 
COc1cc(/C=C2\SC(=S)N(NC(=O)c3ccccc3OC)C2=O)ccc1O |  | inactive: 168%
CC(=O)Nc1ccc(Oc2ccccc2)cc1 |  | inactive: -1.18%
COc1ccc(C(=O)NCc2ccncc2)cc1OC |  | inactive: -1.79%
Cn1cccc1CC(=O)NNC(=S)NC(=O)c1ccc(F)cc1 | inconclusive: 50.1 µM [inhibitor, single point] | 
CCOC(=O)c1c(C)oc2ccc(N(C(=O)c3ccncc3)S(=O)(=O)c3ccc(F)cc3C)cc12 | inconclusive: 6.31 µM [quencher, side channel, partial curve, poor fit] | 

2 of the compounds above, as tab-separated lines.
Compound	Potency	FP activity, negative = inhibition
CC(C)(C)c1nn(-c2ccccc2)c2[nH]c(=O)c(C=O)cc12		inactive: 5.43%
COc1cc(/C=C2\SC(=S)N(NC(=O)c3ccccc3OC)C2=O)ccc1O		inactive: 168%

Carrying on:

Compound | Potency | FP activity, negative = inhibition
Cc1cc2c(c(=O)o1)C(c1ccc([N+](=O)[O-])o1)C(C#N)=C(N)O2 (configuration not stated) | inconclusive: 44.7 µM [fluorescent, side channel, single point] | 
NC(=O)C1(N2CCCCC2)CCN(C(=O)CSc2nc3ccccc3s2)CC1 | inconclusive: 44.7 µM [inhibitor, single point] | 
O=S(=O)(CC(CN1CCCCC1)N1CCCCC1)c1ccc2ccccc2c1 (configuration not stated) |  | inactive: -8.92%
CC/C(=C(\c1ccccc1)c1ccc(OCCN(C)C)cc1)c1ccccc1 | inconclusive: 11.2 µM [inhibitor, single point] | 
CCC(CO)Oc1cc(NC(=O)c2ccc([N+](=O)[O-])cc2)c2ncn(C(C)C)c2c1 (configuration not stated) | inconclusive: 28.2 µM [inhibitor, partial curve, poor fit] | 
CCCCN(C)S(=O)(=O)c1ccc(C(=O)Nc2sc3c(c2C(=O)OCC)CCN(C(C)C)C3)cc1 | inconclusive: 31.6 µM [quencher, side channel, partial curve, poor fit] | 
CSc1nc2c(c(=O)[nH]1)C(c1cccc(Br)c1)CC(=O)N2 (configuration not stated) | inconclusive: 28.2 µM [inhibitor, partial curve, poor fit] | 
O=C(CSc1nnc(CNC(=O)c2ccccc2)n1-c1ccc(F)cc1)Nc1ccccc1F | inconclusive: 20 µM [quencher, side channel, partial curve] | 
COc1ccc(C(=O)N(C)Cc2ccc(C)o2)cc1OC1CCN(C(C)C)CC1 | inconclusive: 17.8 µM [inhibitor, single point] | 
S=c1[nH]nc(COc2ccccc2)n1/N=C/c1ccc(Cl)cc1 |  | inactive: -0.901%
COCCCNC(=O)c1c(NC(=O)c2cc(=O)c3ccccc3o2)sc2c1CCCC2 | inconclusive: 8.91 µM [fluorescent, side channel, single point] | 
CNc1ccc2c3c(cccc13)C(=O)N(C)C2=O | inconclusive: 3.98 µM [inhibitor, partial curve, poor fit] | 
Cc1ccc(SC(C)C(=O)Nc2cccnc2)cc1 (configuration not stated) |  | inactive: 3.17%
CCOc1ccc2[nH]c3c(NCCO)ncnc3c2c1 | inconclusive: 44.7 µM [inhibitor, single point] | 
COc1ccc(Cn2c(CCC(=O)Nc3cccc(OC)c3)nc3cccnc32)cc1 | inconclusive: 4.47 µM [quencher, side channel, single point] | 
Cc1cc(NC(=O)CCC(=O)N(CC(=O)NC2CCCC2)c2ccc(C)c(F)c2)no1 | inconclusive: 8.91 µM [inhibitor, single point] | 
COc1ccc(C2N(c3ccc(Cl)cc3)N=C(C(C)=O)N(C)N2C(C)=O)cc1 (configuration not stated) | inconclusive: 0.794 µM [inhibitor, partial curve, poor fit] | 
COc1ccc([N+](=O)[O-])cc1-c1[nH]c(-c2ccc(C(=O)O)cc2)nc1-c1ccccc1 | inconclusive: 25.1 µM [inhibitor, partial curve, poor fit] | 
Cc1ccc(/C=C2/Sc3ccc(C(=O)NCc4ccccn4)cc3NC2=O)cc1 |  | inactive: 0.788%
COc1ccccc1CNC(=O)CCc1c(C)nc2c(c(C)nn2-c2ccc(C)c(C)c2)c1C |  | inactive: -2.05%
Cc1cc(=O)oc2cc(OCC(=O)OCC(=O)Nc3ccc(C(C)C)cc3)ccc12 | inconclusive: 4.47 µM [inhibitor, full curve, poor fit] | 
